Reference: the supplement of paper PMC7666118
The list shows a part of the results.

The chains behind the UniProt entries cited, without tags or fusion partners. Where a name states a change or a piece, a line headed by the entry shows the natural chain unless it says otherwise.
UniProt O95486: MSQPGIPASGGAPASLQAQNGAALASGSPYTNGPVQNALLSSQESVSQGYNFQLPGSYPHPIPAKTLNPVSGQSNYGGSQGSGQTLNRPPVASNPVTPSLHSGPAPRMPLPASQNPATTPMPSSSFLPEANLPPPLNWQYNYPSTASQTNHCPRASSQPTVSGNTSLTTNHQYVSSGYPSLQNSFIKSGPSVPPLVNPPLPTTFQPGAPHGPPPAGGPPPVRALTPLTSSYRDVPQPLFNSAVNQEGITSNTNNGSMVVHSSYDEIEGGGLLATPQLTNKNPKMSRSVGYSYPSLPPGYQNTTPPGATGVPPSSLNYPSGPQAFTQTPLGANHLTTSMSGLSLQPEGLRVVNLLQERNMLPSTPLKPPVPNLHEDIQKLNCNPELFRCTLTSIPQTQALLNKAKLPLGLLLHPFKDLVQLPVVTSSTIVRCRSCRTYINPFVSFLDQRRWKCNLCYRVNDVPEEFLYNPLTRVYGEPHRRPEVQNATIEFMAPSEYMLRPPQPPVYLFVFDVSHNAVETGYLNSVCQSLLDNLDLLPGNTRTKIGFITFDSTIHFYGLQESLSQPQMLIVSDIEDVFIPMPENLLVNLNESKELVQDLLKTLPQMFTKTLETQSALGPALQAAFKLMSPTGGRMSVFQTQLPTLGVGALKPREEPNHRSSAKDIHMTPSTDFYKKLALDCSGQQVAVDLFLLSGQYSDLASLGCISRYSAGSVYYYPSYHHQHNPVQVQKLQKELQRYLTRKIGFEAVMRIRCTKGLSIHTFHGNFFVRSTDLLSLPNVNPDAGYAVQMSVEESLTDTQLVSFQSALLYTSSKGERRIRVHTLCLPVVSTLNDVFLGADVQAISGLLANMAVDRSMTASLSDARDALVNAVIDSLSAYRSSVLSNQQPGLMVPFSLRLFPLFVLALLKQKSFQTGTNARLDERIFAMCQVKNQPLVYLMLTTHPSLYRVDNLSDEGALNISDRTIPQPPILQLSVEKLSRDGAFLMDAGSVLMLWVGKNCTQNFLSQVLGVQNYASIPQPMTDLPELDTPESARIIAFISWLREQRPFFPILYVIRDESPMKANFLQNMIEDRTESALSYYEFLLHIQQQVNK
UniProt O15027: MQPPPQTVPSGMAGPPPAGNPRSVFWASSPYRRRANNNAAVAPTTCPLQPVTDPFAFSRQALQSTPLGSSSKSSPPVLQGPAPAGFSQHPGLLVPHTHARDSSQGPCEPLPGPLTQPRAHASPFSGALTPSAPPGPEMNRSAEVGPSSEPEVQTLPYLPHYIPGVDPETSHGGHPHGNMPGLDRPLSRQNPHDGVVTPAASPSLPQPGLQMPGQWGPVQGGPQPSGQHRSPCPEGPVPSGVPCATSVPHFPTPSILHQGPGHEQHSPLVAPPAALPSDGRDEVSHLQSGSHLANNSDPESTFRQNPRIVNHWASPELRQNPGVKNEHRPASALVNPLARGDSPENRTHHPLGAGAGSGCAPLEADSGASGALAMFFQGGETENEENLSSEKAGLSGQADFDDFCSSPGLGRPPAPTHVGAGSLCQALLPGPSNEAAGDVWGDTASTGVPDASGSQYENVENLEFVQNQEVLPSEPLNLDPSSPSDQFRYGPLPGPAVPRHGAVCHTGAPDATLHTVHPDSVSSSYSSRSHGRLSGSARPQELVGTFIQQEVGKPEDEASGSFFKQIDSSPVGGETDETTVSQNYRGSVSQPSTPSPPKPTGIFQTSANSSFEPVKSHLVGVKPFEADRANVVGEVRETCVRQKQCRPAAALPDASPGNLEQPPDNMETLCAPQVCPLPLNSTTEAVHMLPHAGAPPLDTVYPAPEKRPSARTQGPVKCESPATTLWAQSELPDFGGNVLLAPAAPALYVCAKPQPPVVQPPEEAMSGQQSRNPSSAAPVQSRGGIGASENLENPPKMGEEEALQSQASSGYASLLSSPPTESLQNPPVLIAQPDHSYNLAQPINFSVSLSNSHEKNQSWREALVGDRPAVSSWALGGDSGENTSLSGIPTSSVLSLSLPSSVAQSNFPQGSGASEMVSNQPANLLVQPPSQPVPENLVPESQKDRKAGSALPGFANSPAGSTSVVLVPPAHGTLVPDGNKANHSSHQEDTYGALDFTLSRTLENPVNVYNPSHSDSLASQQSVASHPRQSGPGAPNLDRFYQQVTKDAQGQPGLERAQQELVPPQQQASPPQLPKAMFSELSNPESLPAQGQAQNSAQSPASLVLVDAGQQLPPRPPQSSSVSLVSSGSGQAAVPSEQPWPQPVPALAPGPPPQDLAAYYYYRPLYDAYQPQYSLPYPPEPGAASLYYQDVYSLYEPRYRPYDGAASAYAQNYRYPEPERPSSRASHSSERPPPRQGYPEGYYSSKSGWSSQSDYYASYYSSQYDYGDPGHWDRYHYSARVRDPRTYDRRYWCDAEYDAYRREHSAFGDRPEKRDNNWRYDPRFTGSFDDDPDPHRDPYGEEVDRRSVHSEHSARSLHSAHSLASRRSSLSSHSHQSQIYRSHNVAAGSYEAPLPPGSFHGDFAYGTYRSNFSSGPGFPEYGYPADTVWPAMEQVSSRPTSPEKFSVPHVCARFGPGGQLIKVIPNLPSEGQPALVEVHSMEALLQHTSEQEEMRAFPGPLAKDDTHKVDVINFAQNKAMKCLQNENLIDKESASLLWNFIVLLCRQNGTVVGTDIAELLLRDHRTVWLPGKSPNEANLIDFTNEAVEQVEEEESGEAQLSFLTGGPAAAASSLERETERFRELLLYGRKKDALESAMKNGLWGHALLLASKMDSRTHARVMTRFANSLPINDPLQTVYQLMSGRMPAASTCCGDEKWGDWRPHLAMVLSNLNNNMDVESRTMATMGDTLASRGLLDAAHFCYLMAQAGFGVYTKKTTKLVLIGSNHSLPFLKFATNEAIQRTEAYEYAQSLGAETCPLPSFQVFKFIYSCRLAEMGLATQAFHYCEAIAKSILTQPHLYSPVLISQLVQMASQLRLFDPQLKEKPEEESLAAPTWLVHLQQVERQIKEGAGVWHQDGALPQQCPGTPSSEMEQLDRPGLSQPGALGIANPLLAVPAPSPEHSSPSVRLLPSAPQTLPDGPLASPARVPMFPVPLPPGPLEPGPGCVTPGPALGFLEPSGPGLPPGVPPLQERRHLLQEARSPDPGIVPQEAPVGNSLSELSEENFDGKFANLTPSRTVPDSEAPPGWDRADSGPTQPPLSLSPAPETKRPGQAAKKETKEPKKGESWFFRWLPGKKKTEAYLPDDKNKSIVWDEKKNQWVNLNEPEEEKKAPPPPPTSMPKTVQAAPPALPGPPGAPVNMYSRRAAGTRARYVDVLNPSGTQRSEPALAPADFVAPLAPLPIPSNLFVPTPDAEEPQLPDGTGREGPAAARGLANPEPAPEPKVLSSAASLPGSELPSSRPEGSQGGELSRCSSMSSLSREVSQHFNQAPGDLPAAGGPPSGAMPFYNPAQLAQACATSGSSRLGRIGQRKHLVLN
UniProt O75995: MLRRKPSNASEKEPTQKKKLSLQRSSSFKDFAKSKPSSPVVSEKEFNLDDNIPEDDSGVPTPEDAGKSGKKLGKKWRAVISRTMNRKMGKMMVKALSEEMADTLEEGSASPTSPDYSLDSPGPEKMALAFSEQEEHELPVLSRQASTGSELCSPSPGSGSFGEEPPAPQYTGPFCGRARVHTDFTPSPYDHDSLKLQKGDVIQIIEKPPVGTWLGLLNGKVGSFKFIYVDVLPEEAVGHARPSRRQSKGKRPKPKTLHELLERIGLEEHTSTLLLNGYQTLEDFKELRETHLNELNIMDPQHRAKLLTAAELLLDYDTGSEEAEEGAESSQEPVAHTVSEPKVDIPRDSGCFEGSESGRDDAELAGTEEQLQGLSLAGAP
UniProt A3KN83: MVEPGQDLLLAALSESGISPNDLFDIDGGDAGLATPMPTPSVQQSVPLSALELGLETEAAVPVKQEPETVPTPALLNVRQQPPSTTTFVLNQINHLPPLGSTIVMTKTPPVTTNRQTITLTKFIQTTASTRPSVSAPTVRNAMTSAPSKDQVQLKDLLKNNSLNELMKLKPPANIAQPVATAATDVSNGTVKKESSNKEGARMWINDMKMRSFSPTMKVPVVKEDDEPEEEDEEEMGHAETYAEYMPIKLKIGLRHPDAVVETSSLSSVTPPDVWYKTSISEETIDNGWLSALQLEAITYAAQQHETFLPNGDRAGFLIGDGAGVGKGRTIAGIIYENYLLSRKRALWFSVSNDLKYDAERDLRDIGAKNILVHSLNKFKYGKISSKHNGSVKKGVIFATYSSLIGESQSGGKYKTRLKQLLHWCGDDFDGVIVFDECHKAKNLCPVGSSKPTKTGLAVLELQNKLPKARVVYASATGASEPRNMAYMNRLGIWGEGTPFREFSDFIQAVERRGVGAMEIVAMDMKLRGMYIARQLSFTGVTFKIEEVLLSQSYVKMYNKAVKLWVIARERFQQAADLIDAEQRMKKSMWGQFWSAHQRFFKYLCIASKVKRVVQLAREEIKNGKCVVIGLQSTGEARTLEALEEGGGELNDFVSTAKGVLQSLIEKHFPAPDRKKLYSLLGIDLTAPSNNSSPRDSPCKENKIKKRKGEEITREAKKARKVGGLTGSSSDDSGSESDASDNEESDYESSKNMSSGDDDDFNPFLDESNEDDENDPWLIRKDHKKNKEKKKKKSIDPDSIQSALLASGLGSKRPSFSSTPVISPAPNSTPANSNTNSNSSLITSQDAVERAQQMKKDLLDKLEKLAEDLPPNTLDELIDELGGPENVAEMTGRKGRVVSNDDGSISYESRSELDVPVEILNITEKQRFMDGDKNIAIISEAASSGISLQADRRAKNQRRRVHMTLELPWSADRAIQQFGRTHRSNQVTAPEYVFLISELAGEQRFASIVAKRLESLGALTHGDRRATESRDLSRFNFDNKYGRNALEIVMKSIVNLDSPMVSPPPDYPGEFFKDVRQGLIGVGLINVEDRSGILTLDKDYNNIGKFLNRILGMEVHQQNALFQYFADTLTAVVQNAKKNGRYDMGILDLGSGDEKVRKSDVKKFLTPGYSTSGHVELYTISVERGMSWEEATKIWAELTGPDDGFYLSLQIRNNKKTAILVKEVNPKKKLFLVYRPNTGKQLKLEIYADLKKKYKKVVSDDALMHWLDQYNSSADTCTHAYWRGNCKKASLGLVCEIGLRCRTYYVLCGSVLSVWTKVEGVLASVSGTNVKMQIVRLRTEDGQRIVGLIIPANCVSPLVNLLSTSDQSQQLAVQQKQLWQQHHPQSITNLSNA
UniProt Q96QD8: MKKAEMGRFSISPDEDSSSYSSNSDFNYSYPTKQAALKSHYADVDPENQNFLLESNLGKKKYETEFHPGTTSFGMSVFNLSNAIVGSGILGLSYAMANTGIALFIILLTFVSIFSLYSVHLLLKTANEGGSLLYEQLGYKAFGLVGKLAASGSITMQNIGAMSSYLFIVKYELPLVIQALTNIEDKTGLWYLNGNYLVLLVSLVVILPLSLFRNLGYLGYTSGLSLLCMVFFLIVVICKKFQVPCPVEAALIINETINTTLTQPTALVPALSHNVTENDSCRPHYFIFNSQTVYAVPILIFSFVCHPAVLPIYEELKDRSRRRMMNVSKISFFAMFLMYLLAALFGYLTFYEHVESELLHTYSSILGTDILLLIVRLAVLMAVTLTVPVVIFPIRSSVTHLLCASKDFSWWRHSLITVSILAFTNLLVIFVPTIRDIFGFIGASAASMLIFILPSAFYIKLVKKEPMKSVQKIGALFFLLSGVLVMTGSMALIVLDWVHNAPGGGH
UniProt Q9BWJ5: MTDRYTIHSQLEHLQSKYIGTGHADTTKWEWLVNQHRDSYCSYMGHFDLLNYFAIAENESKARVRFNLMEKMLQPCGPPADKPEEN
UniProt Q02040: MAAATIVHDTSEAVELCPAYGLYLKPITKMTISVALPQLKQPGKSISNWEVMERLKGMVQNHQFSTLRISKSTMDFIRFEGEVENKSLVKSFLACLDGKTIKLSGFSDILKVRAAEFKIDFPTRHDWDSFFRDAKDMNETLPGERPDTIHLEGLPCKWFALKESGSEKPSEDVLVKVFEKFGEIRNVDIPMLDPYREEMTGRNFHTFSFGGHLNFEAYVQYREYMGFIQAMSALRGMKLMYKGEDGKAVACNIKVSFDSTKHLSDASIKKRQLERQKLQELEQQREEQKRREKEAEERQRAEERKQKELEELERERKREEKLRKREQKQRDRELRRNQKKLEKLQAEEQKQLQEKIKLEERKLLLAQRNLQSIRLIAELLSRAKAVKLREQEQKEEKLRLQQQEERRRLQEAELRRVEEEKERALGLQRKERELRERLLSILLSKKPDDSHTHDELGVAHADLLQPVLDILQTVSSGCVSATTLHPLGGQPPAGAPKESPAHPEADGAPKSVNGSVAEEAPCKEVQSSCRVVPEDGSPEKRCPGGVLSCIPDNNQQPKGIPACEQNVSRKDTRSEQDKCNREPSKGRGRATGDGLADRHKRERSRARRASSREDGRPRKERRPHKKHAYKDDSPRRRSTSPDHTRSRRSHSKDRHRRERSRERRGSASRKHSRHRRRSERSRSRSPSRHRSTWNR

What follows are targets tested with COc1ccc(Cn2ccc3ccc(C(=O)NO)cc32)cc1 (assay: dose-dependent thermal stabilisation call (2D-TPP, DLPTP, 10% FDR) (binary (1 = stabilised)); higher = stabilised by the compound). Conditions: system: HL-60 intact cells; concentration range 0.04-10 µM.

Row | Target | dose-dependent thermal stabilisation call
1 | SEC24A (UniProt O95486) | inactive: 0
2 | SHCBP1 (UniProt Q8NEM2) | inactive: 0
3 | SLC35E1 (UniProt Q96K37) | inactive: 0
4 | SLC25A14 (UniProt O95258) | inactive: 0
5 | SETD3 (UniProt Q86TU7) | inactive: 0
6 | SDHC (UniProt Q99643) | inactive: 0
7 | SLC1A5 (UniProt Q15758) | inactive: 0
8 | SLC2A5 (UniProt P22732) | inactive: 0
9 | SEC16A (UniProt O15027) | inactive: 0
10 | SETD2 (UniProt Q9BYW2) | inactive: 0
11 | SLC35B2 (UniProt Q8TB61) | inactive: 0
12 | SASH3 (UniProt O75995) | inactive: 0
13 | SLC11A2 (UniProt P49281) | inactive: 0
14 | SDSL (UniProt Q96GA7) | inactive: 0
15 | SBNO1 (UniProt A3KN83) | inactive: 0
16 | SEC24D (UniProt O94855) | inactive: 0
17 | SHPRH (UniProt Q149N8) | inactive: 0
18 | SLC43A1 (UniProt O75387) | inactive: 0
19 | SFRS2 (UniProt Q01130) | inactive: 0

Laid out differently: entries from further up.

| Row | Target | dose-dependent thermal stabilisation call |
| --- | --- | --- |
| 1 | SEC24A (UniProt O95486) | inactive: 0 |
| 4 | SLC25A14 (UniProt O95258) | inactive: 0 |
| 7 | SLC1A5 (UniProt Q15758) | inactive: 0 |
| 8 | SLC2A5 (UniProt P22732) | inactive: 0 |
| 10 | SETD2 (UniProt Q9BYW2) | inactive: 0 |
| 13 | SLC11A2 (UniProt P49281) | inactive: 0 |
| 14 | SDSL (UniProt Q96GA7) | inactive: 0 |
| 16 | SEC24D (UniProt O94855) | inactive: 0 |
| 19 | SFRS2 (UniProt Q01130) | inactive: 0 |

Next results:

Row | Target | dose-dependent thermal stabilisation call
20 | SLC44A1 (UniProt Q8WWI5) | inactive: 0
21 | SLC38A2 (UniProt Q96QD8) | inactive: 0
22 | SHARPIN (UniProt Q9H0F6) | inactive: 0
23 | SC65 (UniProt Q92791) | inactive: 0
24 | SEC61A1 (UniProt P61619) | inactive: 0
25 | SFRS2IP (UniProt Q99590) | inactive: 0
26 | SLC6A6 (UniProt P31641) | inactive: 0
27 | SIAE (UniProt Q9HAT2) | inactive: 0
28 | SHPK (UniProt Q9UHJ6) | inactive: 0
29 | SCO2 (UniProt O43819) | inactive: 0
30 | SERINC3 (UniProt Q13530) | inactive: 0
31 | SF3B5 (UniProt Q9BWJ5) | inactive: 0
32 | SHOC2 (UniProt Q9UQ13) | inactive: 0
33 | SFRS17A (UniProt Q02040) | inactive: 0
34 | SLC7A11 (UniProt Q9UPY5) | inactive: 0
35 | SEDLP | inactive: 0
36 | SLC4A1AP (UniProt Q9BWU0) | inactive: 0
37 | SCAP (UniProt Q12770) | inactive: 0
